Measured values from article doi:10.1101/2024.01.15.575768.
These are yes or no findings as the source states them, for the method shown. In cells and extracts the contact can be indirect. Some entries that bind do so weakly or less than the wild type.

Target: FLAG-FTO (human) (UniProt Q9C0B1)
Test: co-IP

B1: endogenous ZBTB48 (protein, UniProt P10074 1-688)
chain: MDGSFVQHSVRVLQELNKQREKGQYCDATLDVGGLVFKAHWSVLACCSHFFQSLYGDGSGGSVVLPAGFAEIFGLLLDFFYTGHLALTSGNRDQVLLAARELRVPEAVELCQSFKPKTSVGQAAGGQSGLGPPASQNVNSHVKEPAGLEEEEVSRTLGLVPRDQEPRGSHSPQRPQLHSPAQSEGPSSLCGKLKQALKPCPLEDKKPEDCKVPPRPLEAEGAQLQGGSNEWEVVVQVEDDGDGDYMSEPEAVLTRRKSNVIRKPCAAEPALSAGSLAAEPAENRKGTAVPVECPTCHKKFLSKYYLKVHNRKHTGEKPFECPKCGKCYFRKENLLEHEARNCMNRSEQVFTCSVCQETFRRRMELRVHMVSHTGEMPYKCSSCSQQFMQKKDLQSHMIKLHGAPKPHACPTCAKCFLSRTELQLHEAFKHRGEKLFVCEECGHRASSRNGLQMHIKAKHRNERPHVCEFCSHAFTQKANLNMHLRTHTGEKPFQCHLCGKTFRTQASLDKHNRTHTGERPFSCEFCEQRFTEKGPLLRHVASRHQEGRPHFCQICGKTFKAVEQLRVHVRRHKGVRKFECTECGYKFTRQAHLRRHMEIHDRVENYNPRQRKLRNLIIEDEKMVVVALQPPAELEVGSAEVIVESLAQGGLASQLPGQRLCAEESFTGPGVLEPSLIITAAVPEDCDT
In the case of B1, the binding is reported as “binds”.
